The other results are listed elsewhere or left out.

Protein sequences, listed by entry. Tags and fused reporters are not part of them.
UniProt Q0JBA9, entry or part of it: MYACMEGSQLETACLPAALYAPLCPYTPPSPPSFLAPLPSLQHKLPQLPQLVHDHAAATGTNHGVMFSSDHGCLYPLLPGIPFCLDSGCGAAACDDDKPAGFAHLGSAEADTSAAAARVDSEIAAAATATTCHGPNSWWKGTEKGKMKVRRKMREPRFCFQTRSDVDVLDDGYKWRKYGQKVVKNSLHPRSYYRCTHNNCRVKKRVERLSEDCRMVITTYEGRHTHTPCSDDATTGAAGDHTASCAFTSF

In the experiment the target is OsWRKY34 (Oryza sativa, UniProt Q0JBA9 1-250). Kind of experiment: protein-binding microarray (RPBM); PBS, 2% BSA, 51.3 ng/ul salmon testes DNA, 50 uM zinc acetate, 200 nM TF, 25 C, 1 h; high values mean tight binding. Conditions: protein: recombinant; tags: N-terminal polyhistidine and DsRed monomer fusion (pET32a); label: CyDye5-dUTP incorporated in the synthesized complementary strand; 3' TTTTT single-stranded linker to array surface; dsDNA, one strand shown. In outline: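 A custom Agilent array was converted to double-stranded form by primer extension with Cy5-dUTP and blocked with 2% BSA. Protein at 200 nM in PBS with 2% BSA, salmon testes DNA and 50 µM zinc acetate was applied for 1 h at 25 °C, followed by washing. The proteins were polyhistidine–DsRed N-terminal fusions of transcription factors, expressed in E. coli BL21-CodonPlus and Ni–NTA-purified. The binding signal is per-feature fluorescence intensity (arbitrary units) from an Axon 4000B scanner.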
As to “ACCACCACCCGTCACCCACCTCCGCGTCCTCGCCGGAGCACGGAGTCACCTAGTGCAG”, the binding signal is 9300 fluorescence intensity (a.u.).
With “CACCACATTCTTCCAGGTTCCAATCTTTGATTAGTTGGTTCGGAGTCACCTAGTGCAG” the figure was 9690 fluorescence intensity (a.u.).
On to “TCCATCGGTCACCGCCGCCCCGCCCCGTCGCGAGCGACCTCGGAGTCACCTAGTGCAG”, for which the binding signal was 9150 fluorescence intensity (a.u.).
For the sequence “AGCCATTTCTGTTCCACTCAACCTGTTCCTTCTATTCTTTCGGAGTCACCTAGTGCAG”, the binding signal was 11500 fluorescence intensity (a.u.).
Turning to “TCTCTTCTATCCCTATTCCGTTAGTTGACTGTTAGATTTTCGGAGTCACCTAGTGCAG”, the binding signal is 10700 fluorescence intensity (a.u.).
Next, “CAAGCTACTAGCTAGCTCCTCACTTCTTCCAGCTTCTTACCGGAGTCACCTAGTGCAG”: 8990 fluorescence intensity (a.u.); “CGCCTCCGATGCGCTGCGCCATGATCAACCACCGACTTTTCGGAGTCACCTAGTGCAG”: 12600 fluorescence intensity (a.u.); “ATTGGTTGGGAATGTGATGTTATTAGAAATGTTATATTTTCGGAGTCACCTAGTGCAG”: 8300 fluorescence intensity (a.u.).
Turning to “AACCACCTTTGTTTTGGGGTCTGGCTAAACCGTATGGTCACGGAGTCACCTAGTGCAG”, the binding signal was 8890 fluorescence intensity (a.u.).
As for “ATTCCGGGCTGTAAATTCGGTGGGCTTGGTGTCTAACAACCGGAGTCACCTAGTGCAG”, the binding signal was 8100 fluorescence intensity (a.u.).
“CTCGAGTGTCTCCCGTACGTCTCGCCTCGCCTGCGCCGATCGGAGTCACCTAGTGCAG”: the binding signal was 9910 fluorescence intensity (a.u.).
For the sequence “TCGCTCGCCTTCTCGGTTTCCTTCTATCCTTCTCCTCGCGCGGAGTCACCTAGTGCAG”, the binding signal was 15200 fluorescence intensity (a.u.).
With “TTGCCACGTCCCGCTTACTGTCCTGGCCCACCTAAATGTGCGGAGTCACCTAGTGCAG” the figure was 9740 fluorescence intensity (a.u.); with “TACCTTTCACAACCTCGACTATCATCTTGATCCGACTCGACGGAGTCACCTAGTGCAG”, 9770 fluorescence intensity (a.u.).
With “AAAAGAAACAACCAACCAGCGCCTTACCCACACGCCAAGTCGGAGTCACCTAGTGCAG”, the binding signal was 10200 fluorescence intensity (a.u.).
On to “GAACGGAACCGCGACAAGGTTTGACCATTTGAATGTATTTCGGAGTCACCTAGTGCAG”, for which the binding signal is 9060 fluorescence intensity (a.u.).
On to “ACCTGCAACAGTACTCCACCTTCTCTCATATCACCACAGTCGGAGTCACCTAGTGCAG”, for which the binding signal is 8420 fluorescence intensity (a.u.).
Consider “GTGTGTCTTCTAAGCCGCGTTCTCCATCATGGCCCTGAACCGGAGTCACCTAGTGCAG”, for which the binding signal is 8440 fluorescence intensity (a.u.).
Turning to “AGTTAGCTAGCTCTTGCTTCTATCTCGTGCATAATTTAGACGGAGTCACCTAGTGCAG”, the binding signal is 8670 fluorescence intensity (a.u.).
On to “TGCACTATTCACGTTCAACGTTTGACCGTTCGTTTTATTTCGGAGTCACCTAGTGCAG”, for which the binding signal is 12700 fluorescence intensity (a.u.).
Consider “AATAGTTGCCACTGTTGCACTAATTGTTGTCTTATTTCTTCGGAGTCACCTAGTGCAG”, for which the binding signal is 8040 fluorescence intensity (a.u.).
For “CTTCCTCACTTTTTCTTTCTTTCTTCCTCTCCAAGAAGACCGGAGTCACCTAGTGCAG”, the binding signal is 8180 fluorescence intensity (a.u.).
For “CATGAGTCGGATCGTGTGGTTGTTGTGTATGCTTCACTGACGGAGTCACCTAGTGCAG”, the binding signal was 10400 fluorescence intensity (a.u.).
With “TTCCTAACTCACCTATCTCCTTTTTTCACACGCACGTTTTCGGAGTCACCTAGTGCAG” the figure was 8230 fluorescence intensity (a.u.); with “TTCCGCGTCAACCACCACCGCGCCGGCGTGCGCCTCCGCGCGGAGTCACCTAGTGCAG”, 10300 fluorescence intensity (a.u.).
Next, “GTCTAAAGTCGTCTGTCTAGAAAGTGGGGTTATAGTGTGGCGGAGTCACCTAGTGCAG”: 8520 fluorescence intensity (a.u.).
Next, “TGTGCGATAATGTTTTCTGCTCAGTGCTTCTGGTTCACGTCGGAGTCACCTAGTGCAG”: 10800 fluorescence intensity (a.u.); “AGTGTAATTAATGGGCTTCTTTTCGATGGCTCTTGTTGGGCGGAGTCACCTAGTGCAG”: 8860 fluorescence intensity (a.u.); “CCATTAAAAACCACATCGTTCCTGTTTGACCATATCGCTACGGAGTCACCTAGTGCAG”: 10900 fluorescence intensity (a.u.).
With “ATAATCCCTATCCTTCCCAAACGGGCCCGTCGCCTAATCACGGAGTCACCTAGTGCAG”, the binding signal is 10700 fluorescence intensity (a.u.).
Next, “ACTATCGAGTACATCTCTGAAATGTTTAACTTTCAAACAGCGGAGTCACCTAGTGCAG”: 8050 fluorescence intensity (a.u.); “ACCTCTGCTTTCAATCCCAGTTCACTCTTCTTCTCTCGTACGGAGTCACCTAGTGCAG”: 8940 fluorescence intensity (a.u.); “AAAGTCTCTTCGCCTTATAACTCCATCTCCAGCGCCTCTTCGGAGTCACCTAGTGCAG”: 8050 fluorescence intensity (a.u.).
Take “GTCAACCCTACTCCAGCTCGGTTTCAGCTCTACAGTGACTCGGAGTCACCTAGTGCAG”: the binding signal is 9330 fluorescence intensity (a.u.).
“GCCATCTCCGCCTCTCCTCGCCACCACACCACTCCTCTCGCGGAGTCACCTAGTGCAG”: the binding signal was 8110 fluorescence intensity (a.u.).
As for “CGAGGCGGAATGGGGCGGAGGAGGAGGAGGAGGAGGGAGGCGGAGTCACCTAGTGCAG”, the binding signal is 13000 fluorescence intensity (a.u.).
Regarding “GGAAGGTATCACCAGATCTGGGTTGAGGGTGTGGGAGCTCCGGAGTCACCTAGTGCAG”, the binding signal is 8900 fluorescence intensity (a.u.).
Take “AACATTGTGTCCATTGTCTTCGATCCCTCTGTCGATCTCTCGGAGTCACCTAGTGCAG”: the binding signal was 8810 fluorescence intensity (a.u.).
As for “ATTTACATTCCTATCAAAATTTTAAATTTTTTCTATTTCTCGGAGTCACCTAGTGCAG”, the binding signal is 8780 fluorescence intensity (a.u.).
As for “AATTGAGAGTTGTTTATAGTTGGGGTTTATGGATTTAGGGCGGAGTCACCTAGTGCAG”, the binding signal is 8290 fluorescence intensity (a.u.).
For “GCCGCTAGTGTCTCTAATATGTTGTCTCGTGGAAAATTTTCGGAGTCACCTAGTGCAG”, the binding signal was 10000 fluorescence intensity (a.u.).
On to “GCGCGCGGGTGAGGAGGAGGAGGGGATGGGGAGGGGCCCGCGGAGTCACCTAGTGCAG”, for which the binding signal is 17700 fluorescence intensity (a.u.).

These data come from article PMC7819943, “Rice protein-binding microarrays: a tool to detect cis-acting elements near promoter regions in rice”.
